Experimental data reported in publication PMC12192239.

Biological target: GST-GhA01EP1 (GST-GhA01EP1-pGS21T) (upland cotton (Gossypium hirsutum))
Test: affinity purification with mass spectrometry; GST-GhA01EP1 (or GST) on GST-beads incubated with crude protein extract of GhA01EP1-transgenic Arabidopsis whole seedlings; washed twice with TNT Buffer (20 mmol/L Tris pH 8.0, 125 mmol/L NaCl, 0.5% TritonX-100); SDS-PAGE band cut, LC-MS/MS (TripleTOF 5600+, Mascot 2.3, Uniprot database); only the target purified

binding: binds
B1: SCPL35, serine carboxypeptidase-like protein (endogenous, Arabidopsis) (enzyme, UniProt Q9LEY1 21-480)
chain: RKPEKKVTISSSGRKEDDLVTGLPGQPPVNFKHYAGYVNLGPEQKQKALFYWFFEAQQNSSRRPLVLWLNGGPGCSSIAYGAAQELGPFLVHDNGGKLTYNHFSWNKEANMLFLEAPVGVGFSYTNNSMDLQKLGDEVTASDSLAFLINWFMKFPEFRSSEFYISGESYAGHYVPQLAEVIYDRNKKVTKDSSINLKGFMIGNAVINEATDMAGLVDYAWSHAIISDEVHTSIHGSCSFEEDTTNKTEQCYNNFKGFMDAYNDIDIYSIYTPVCLSSLLSSSPRKPKIVVSPRLLTFDDLWDKFPAGYDPCTESYAENYFNRKDVQVALHANVTNLPYPYSPCSGVIKRWSDAPSTMIPIIQKLLTGGLRIWIYSGDTDGRVPVTSTRYSIKKMGLKVESPWRSWFHKSQVAGWVETYAGGLNFVTVRGAGHQVPALAPAQSLTLFSHFISSVPLPSKRF

No constants are given. Whether binding was seen depends on the method and setting. In cells and extracts the contact can be indirect. A yes stands for co-enrichment or nearness to the bait. Other partners may have been found.
